No constants are given. Whether binding was seen depends on the method and setting. Some binding calls cover weakened binding; strength is not graded here.
Experiments:
[1] = biological target: non-hemolytic variant of pneumolysin (Ply-NH; allele 5) of serotype 1 ST306 (Streptococcus pneumoniae serotype 1 ST306 strain 01-1956) (UniProt P0C2J9); test: SDS-PAGE of unboiled samples with immunoblot (SDS-resistant oligomers); 10^6 A549 cells incubated with 0.5 ug Ply variant in PBS for 30 min at 37°C, 5% SDS-PAGE without boiling, anti-Ply blot; oligomers on cell membranes; both purified
[2] = biological target: non-hemolytic variant of pneumolysin (Ply-NH; allele 5) of serotype 1 ST306 (Streptococcus pneumoniae serotype 1 ST306 strain 01-1956) (UniProt P0C2J9); test: negative-stain transmission electron microscopy; purified Ply (0.5 uM) incubated with cholesterol:POPC (50 mol% each) liposomes (2 mg/ml) at 37°C for 30 min, stained with 2% phosphotungstic acid; oligomeric rings on membranes; both purified
[3] = biological target: non-hemolytic variant of pneumolysin (Ply-NH; allele 5) of serotype 1 ST306 (Streptococcus pneumoniae serotype 1 ST306 strain 01-1956) (UniProt P0C2J9); test: SDS-PAGE of unboiled samples with immunoblot (SDS-resistant oligomers); purified Ply variant without cells, 5% SDS-PAGE, anti-Ply blot; both purified

Protein sequences, listed by entry. Tags and fused reporters are not part of them. Lines headed by an entry give the natural chain unless they say otherwise; changes in a name come on top.
UniProt P0C2J9, whole entry, looked up, stated change not applied: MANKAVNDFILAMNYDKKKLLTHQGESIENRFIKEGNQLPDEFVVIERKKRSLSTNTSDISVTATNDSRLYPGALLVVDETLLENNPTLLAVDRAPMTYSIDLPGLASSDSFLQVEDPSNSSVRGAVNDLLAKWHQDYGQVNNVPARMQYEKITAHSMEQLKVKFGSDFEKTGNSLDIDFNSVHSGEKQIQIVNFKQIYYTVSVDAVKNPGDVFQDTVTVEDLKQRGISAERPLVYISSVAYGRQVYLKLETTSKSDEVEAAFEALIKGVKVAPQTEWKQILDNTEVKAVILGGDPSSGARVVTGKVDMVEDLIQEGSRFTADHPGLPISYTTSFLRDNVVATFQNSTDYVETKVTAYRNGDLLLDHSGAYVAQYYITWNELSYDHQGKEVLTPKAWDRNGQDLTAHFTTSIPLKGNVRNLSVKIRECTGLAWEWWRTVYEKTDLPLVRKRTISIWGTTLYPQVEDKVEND

Substance: non-hemolytic variant of pneumolysin (Ply-NH; allele 5) of serotype 1 ST306 (from UniProt P0C2J9 1-471)
- binding [1]: binds
- binding [2]: binds
- binding [3]: no binding (condition: without cells)

From paper PMC7717573
